Results published in US4960788A, “Pyrrolidone-2 compounds and their use for central analgesic activity” (priority 1988, dated 1990).

Tested on: guinea-pig isolated ileum
Experiment: morphine-like activity on guinea-pig isolated ileum (inhibition of electrically induced contractions)
Type: cell-based
Conditions: Cavia porcellus; inhibition of 50% of contraction; electric stimulation 0.1 Hz-0.5 msec.
Experimental: The experiments were carried out according to the method described by Goldstein and Schultz (Br. J. Pharmacol., 48, 655, 1975) which is based on the capacity of the molecules showing an agonist activity on opioid receptors to inhibit the contractions of smooth muscles of guinea-pig ileum induced by electric stimulation (0.1 Hz-0.5 msec.).
The pharmacological activity was expressed as the necessary concentration (mM) to inhibit 50% of contraction (IC50).

CN1CC[C@]23c4c5ccc(O)c4O[C@H]2[C@@H](O)C=C[C@H]3[C@H]1C5 [morphine, reference compound]
IC50: 0.111 µM
